Measured values as given in patent US20070054863A1.
These are yes or no findings as the source states them, for the method shown. For some assays here: Binding seen in cells or lysates may run through a third protein. Some entries that bind do so weakly or less than the wild type. For some assays here: Where a sequence is shown, tags or fusion partners need not be part of it.

Protein sequences, listed by entry. Tags and fused reporters are not part of them.
UniProt P10415: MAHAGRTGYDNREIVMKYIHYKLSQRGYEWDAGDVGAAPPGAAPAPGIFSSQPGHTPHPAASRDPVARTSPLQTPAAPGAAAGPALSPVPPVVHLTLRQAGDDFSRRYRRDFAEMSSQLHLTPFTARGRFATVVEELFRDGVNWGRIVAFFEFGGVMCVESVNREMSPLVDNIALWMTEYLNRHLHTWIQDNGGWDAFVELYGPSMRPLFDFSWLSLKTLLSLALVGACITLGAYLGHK

T1: myc-tagged Bcl-B (UniProt Q9HD36)
T1 sequence (looked up): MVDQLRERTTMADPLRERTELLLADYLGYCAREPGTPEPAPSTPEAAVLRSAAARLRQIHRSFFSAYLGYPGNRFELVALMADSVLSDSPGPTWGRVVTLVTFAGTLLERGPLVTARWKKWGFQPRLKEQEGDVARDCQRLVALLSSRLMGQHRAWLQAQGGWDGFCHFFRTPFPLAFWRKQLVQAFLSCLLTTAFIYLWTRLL

T2: myc-tagged Bfl-1 (UniProt Q16548)
T2 sequence (looked up): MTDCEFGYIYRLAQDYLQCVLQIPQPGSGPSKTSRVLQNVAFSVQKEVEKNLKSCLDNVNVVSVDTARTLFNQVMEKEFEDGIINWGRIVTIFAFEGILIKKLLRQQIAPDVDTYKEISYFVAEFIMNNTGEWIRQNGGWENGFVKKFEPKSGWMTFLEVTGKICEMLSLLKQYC


Legend:
GST-Bcl-2 [GST: P08515] [1] = experiment: circular dichroism
GST-Bcl-2 [GST: P08515] [2] = experiment: fluorescence polarization competition
Bcl-2 [3] = target: Bcl-2 (UniProt P10415); experiment: immunoprecipitation assays
Bcl-2 [4] = target: Bcl-2 (UniProt P10415); experiment: co-immunoprecipitation with anti-Bcl-2 antibody, HEK293T cells
Bcl-2 [5] = target: Bcl-2 (UniProt P10415); experiment: co-immunoprecipitation with anti-Bcl-2 antibody
myc-tagged Bcl-2 [6] = target: myc-tagged Bcl-2 (UniProt P10415); experiment: co-immunoprecipitation with anti-Myc antibody, anti-GFP immunoblot, HEK293T cells
myc-tagged Bcl-B [7] = target: T1, myc-tagged Bcl-B; experiment: as above
myc-tagged Bfl-1 [8] = target: T2, myc-tagged Bfl-1; experiment: as above
myc-tagged Bcl-2 [9] = target: myc-tagged Bcl-2 (UniProt P10415); experiment: co-immunoprecipitation, immunoblot (FIG. 19)
myc-tagged Bcl-B [10] = target: T1, myc-tagged Bcl-B; experiment: co-immunoprecipitation, immunoblot (FIG. 19)
myc-tagged Bfl-1 [11] = target: T2, myc-tagged Bfl-1; experiment: co-immunoprecipitation, immunoblot (FIG. 19)

binding (GST-Bcl-2 [GST: P08515] [1])	binding (GST-Bcl-2 [GST: P08515] [2])	binding (Bcl-2 [3])	binding (Bcl-2 [4])	binding (Bcl-2 [5])	binding (myc-tagged Bcl-2 [6])	binding (myc-tagged Bcl-B [7])	binding (myc-tagged Bfl-1 [8])	binding (myc-tagged Bcl-2 [9])	binding (myc-tagged Bcl-B [10])	binding (myc-tagged Bfl-1 [11])	Binder
binds	binds										FSRSLHSLL (N-terminal acetyl; C-terminal amide (said of all peptides)) [NuBCP-9 (unconjugated)]
		binds	binds	binds	binds	binds	binds	binds	binds	binds	FSRSLHSLL (peptide, not shown: large carriers) [GFP-Nur77/489-497]
